The values that follow come from patent US20200181195A1.

Test [1] addresses HLA-A*02:01 molecule (HLA-A*02:01 gene product) (human). Kind of test: flow cytometry, T2 cells + purified b2m, peptide dilution series, BB7.2 staining.
The target of test [2] is HLA-A*24:02 molecule (HLA-A*24:02 gene product) (human). Kind of test: flow cytometry, acid-stripped C1R-A24 cells + purified b2m, peptide dilution series, 17A12 staining.
The target of test [3] is HLA-A*02:01 molecule (HLA-A*02:01 gene product) (human). Kind of test: stated in the description; underlying assay is the cell-based flow cytometry of Example 1. In general terms: A flow cytometer gives signals particle by particle.
Test [4] deals with HLA-A*24:02 molecule (HLA-A*24:02 gene product) (human). The test is described as above.

These are yes or no findings as the source states them, for the method shown. For part of these data: Binding can be weak; no strength is given.

With SFFFLSFHI [… (Seq. ID No. 8)], the binding entry in test [1] is “no binding (tested: >-4)”.

For the molecule GQDVTSVPV [… (Seq. ID No. 11)], in test [2], the binding entry is on record as “no binding (tested: >-3)”.

With FSAQSGAGV [… (Seq. ID No. 12)], the binding result in test [2] is listed as “no binding (tested: >-3)”.

Consider TLAFREGTI [… (Seq. ID No. 9)], for which the binding entry in test [1] is recorded as “no binding (tested: >-3)”.

For the molecule HHSDTPTTL [… (Seq. ID No. 7)], the binding entry in test [1] was “no binding (tested: >-3)”.

Take AFREGTINV [… (Seq. ID No. 4)]: the binding result in test [1] is “no binding (tested: >-3)”.

STGVSFFFL [… (Seq. ID No. 10)]: the binding entry in test [3] and in test [4] was “binds” in each case.

Consider LQRDISEMF [… (Seq. ID No. 6)], for which, in test [1], the binding entry is listed as “no binding (tested: >-3)”.
